In this experiment the target is YFP-hScrib (human) (UniProt Q14160). Put plainly: FRET or BRET.

Chains of the proteins cited; added tags and fusions are not shown.
UniProt Q14160: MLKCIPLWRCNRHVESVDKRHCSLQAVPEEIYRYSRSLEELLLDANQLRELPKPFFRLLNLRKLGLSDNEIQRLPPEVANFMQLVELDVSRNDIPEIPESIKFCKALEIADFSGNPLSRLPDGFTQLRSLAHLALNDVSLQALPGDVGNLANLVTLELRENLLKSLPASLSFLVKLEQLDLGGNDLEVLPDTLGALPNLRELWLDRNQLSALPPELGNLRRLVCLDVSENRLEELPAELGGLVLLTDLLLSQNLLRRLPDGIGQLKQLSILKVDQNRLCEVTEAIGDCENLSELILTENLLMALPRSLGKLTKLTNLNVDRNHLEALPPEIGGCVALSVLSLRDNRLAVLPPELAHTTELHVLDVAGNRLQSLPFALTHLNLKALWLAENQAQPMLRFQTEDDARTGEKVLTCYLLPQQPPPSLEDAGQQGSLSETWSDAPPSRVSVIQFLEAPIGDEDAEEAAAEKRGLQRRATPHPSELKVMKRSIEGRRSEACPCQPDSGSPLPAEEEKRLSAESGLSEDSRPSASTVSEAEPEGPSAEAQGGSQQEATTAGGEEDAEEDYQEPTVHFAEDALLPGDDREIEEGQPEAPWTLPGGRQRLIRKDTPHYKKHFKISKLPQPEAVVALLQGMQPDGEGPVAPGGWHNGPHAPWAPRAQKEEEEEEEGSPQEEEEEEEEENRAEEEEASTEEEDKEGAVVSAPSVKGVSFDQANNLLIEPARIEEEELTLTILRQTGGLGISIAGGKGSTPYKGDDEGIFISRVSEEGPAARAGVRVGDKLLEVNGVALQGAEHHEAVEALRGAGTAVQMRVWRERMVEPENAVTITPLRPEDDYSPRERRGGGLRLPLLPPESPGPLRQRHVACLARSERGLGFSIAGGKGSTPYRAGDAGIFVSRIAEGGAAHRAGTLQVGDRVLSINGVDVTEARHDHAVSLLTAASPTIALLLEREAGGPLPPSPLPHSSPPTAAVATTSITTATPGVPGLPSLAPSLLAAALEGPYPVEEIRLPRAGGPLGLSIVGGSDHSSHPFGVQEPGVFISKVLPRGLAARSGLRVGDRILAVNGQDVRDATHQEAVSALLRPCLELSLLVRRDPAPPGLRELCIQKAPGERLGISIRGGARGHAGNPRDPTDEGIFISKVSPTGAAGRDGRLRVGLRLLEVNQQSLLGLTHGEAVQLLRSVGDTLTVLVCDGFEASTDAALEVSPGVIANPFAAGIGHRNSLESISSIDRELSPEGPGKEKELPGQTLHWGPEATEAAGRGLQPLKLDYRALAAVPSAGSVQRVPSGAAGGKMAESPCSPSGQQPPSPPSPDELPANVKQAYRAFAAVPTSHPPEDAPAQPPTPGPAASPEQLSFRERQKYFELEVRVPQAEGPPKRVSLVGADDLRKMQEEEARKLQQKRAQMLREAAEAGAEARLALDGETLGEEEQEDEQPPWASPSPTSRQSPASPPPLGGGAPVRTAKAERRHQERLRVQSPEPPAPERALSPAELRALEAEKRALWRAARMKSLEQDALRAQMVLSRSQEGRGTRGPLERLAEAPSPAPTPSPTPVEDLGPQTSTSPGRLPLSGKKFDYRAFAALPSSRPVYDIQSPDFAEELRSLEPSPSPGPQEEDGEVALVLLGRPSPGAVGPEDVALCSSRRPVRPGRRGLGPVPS
UniProt P16790: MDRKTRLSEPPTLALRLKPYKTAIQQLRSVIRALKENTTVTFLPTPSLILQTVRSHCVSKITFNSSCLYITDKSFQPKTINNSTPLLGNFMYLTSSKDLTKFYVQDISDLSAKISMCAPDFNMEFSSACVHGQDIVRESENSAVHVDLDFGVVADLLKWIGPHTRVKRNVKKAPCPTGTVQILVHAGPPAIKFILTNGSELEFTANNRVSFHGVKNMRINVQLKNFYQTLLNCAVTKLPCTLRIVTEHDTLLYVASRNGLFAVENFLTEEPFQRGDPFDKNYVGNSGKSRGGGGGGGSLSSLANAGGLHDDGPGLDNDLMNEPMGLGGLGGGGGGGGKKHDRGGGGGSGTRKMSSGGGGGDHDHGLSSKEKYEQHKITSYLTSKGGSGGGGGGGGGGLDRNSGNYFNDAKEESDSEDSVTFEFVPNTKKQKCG

Results are given in words; binding and its absence hold for the method and conditions named. In cells and extracts the contact can be indirect.

Regarding “RLuc-UL44 (UL44 of human cytomegalovirus) (from UniProt P16790 1-433)”, the binding entry was “no binding”.

The values are drawn from PMC8393709.
